Experimental data reported in publication PMC12516185.

Biological target: T1, native isoamylase1 (ISA1) of maize endosperm (maize (endogenous in endosperm)) (UniProt O22637)
T1 sequence: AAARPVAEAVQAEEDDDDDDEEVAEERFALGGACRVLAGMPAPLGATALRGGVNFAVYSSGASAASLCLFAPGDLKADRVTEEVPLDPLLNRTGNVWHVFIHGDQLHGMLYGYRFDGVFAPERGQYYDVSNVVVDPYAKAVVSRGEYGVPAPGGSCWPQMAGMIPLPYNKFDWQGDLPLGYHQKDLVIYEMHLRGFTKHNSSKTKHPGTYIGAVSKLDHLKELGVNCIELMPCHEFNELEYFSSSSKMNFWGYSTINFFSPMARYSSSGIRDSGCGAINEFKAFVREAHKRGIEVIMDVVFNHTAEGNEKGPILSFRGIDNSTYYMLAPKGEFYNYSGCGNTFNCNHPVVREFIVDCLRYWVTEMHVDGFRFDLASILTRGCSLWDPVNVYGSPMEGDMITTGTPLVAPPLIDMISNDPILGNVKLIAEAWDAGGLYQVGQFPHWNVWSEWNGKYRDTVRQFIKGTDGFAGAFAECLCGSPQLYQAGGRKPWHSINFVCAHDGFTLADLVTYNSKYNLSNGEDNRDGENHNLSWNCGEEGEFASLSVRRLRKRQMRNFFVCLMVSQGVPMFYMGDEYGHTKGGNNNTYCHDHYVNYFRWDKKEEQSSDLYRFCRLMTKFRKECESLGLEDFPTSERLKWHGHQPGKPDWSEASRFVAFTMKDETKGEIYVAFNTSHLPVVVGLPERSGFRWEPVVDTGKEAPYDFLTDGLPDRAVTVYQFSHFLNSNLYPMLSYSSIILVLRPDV
Assay: co-IP; total soluble endosperm extract (about 500 ug protein) incubated with anti-ISA1 IgG on protein A-Sepharose in PBS on ice for 60 min; washed 5 times in PBS with 1% NP-40; immunoblot with anti-ISA1 IgG or anti-ZPU1 serum; controls were su1-4582 and zpu1-204 null extracts

binding: binds
Substance: native pullulanase1 (ZPU1) of maize endosperm (enzyme)

These are yes or no findings as the source states them, for the method shown. Binding seen in cells or lysates may run through a third protein. A result given as binding can be weak or reduced; the word gives no strength.
